# Source: PubChem BioAssay AID1224826 (NIAID, 2016)
# Assay: 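Knock-downs that raise or lower Tnf reporter signal after endotoxin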 (primary screen)
# System: RAW264.7 G9 macrophages from mouse bearing reporters for p65 (GFP) and the Tnf promoter (mCherry)
# Knock-down reagent: siRNA pool against mouse genes, 100 nM
# Duration: 16 h of LPS stimulation, after 2 days of siRNA transfection
# Treatment: bacterial lipopolysaccharide (Salmonella minnesota R595), 10 ng/ml
# Measurement: 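Imaged Tnf reporter mCherry in nuclei, minus background, normalised per plate to the median and expressed as robust z-scores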
# Direction: Tnf reporter robust z-score: higher = stronger Tnf promoter reporter signal after LPS; Tnf reporter intensity: higher = stronger Tnf promoter reporter signal
# Active means: 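Called active when robust z-score is at most -1.3, matching the median of the Tlr4 knock-down control, or over 3; control wells and wells with under 50 cells never active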
# Meaning of the calls: active = Tnf reporter clearly lowered or raised; inactive = no clear change in Tnf reporter
# This is one part, drawn at random, of about 17,000 reagents tested. Over the whole deposit, about 1,110 (6.6%) were called active. 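Active means lowered or raised reporter signal; replicate intensities are raw and not normalised per plate.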 Not all columns of the deposit are shown.
target,Tnf reporter robust z-score,fewer than 50 cells in well,"Tnf reporter intensity, replicate 1",Outcome
"Gja10 (gap junction protein, alpha 10)",-0.37,enough cells in well,215,inactive
"Egflam (EGF-like, fibronectin type III and laminin G domains)",0.68,enough cells in well,213,inactive
"Tbc1d10a (TBC1 domain family, member 10a)",,fewer than 50 cells per well; well left out of calls,137,inactive
Btbd9 (BTB domain containing 9),-1.34,enough cells in well,49.2,active
Hoxa11 (homeobox A11),0.88,enough cells in well,296,inactive
Sgk2 (serum/glucocorticoid regulated kinase 2),0.89,enough cells in well,272,inactive
"Pcdhga2 (protocadherin gamma subfamily A, 2)",0.6,enough cells in well,178,inactive
Tspo2 (translocator protein 2),-0.26,enough cells in well,115,inactive
Gpr108 (G protein-coupled receptor 108),0,enough cells in well,216,inactive
"Parp3 (poly (ADP-ribose) polymerase family, member 3)",-1.26,enough cells in well,89.4,inactive
5830411J07Rik (RIKEN cDNA 5830411J07 gene),-1.56,enough cells in well,88.3,active
Lrif1 (ligand dependent nuclear receptor interacting factor 1),2.25,enough cells in well,318,inactive
Senp2 (SUMO/sentrin specific peptidase 2),,fewer than 50 cells per well; well left out of calls,132,inactive
Tbx4 (T-box 4),-0.21,enough cells in well,214,inactive
Tspyl2 (TSPY-like 2),-0.93,enough cells in well,138,inactive
Caskin2 (CASK-interacting protein 2),-0.85,enough cells in well,71.8,inactive
Or2m13 (olfactory receptor family 2 subfamily M member 13),2.4,enough cells in well,359,inactive
Smarca5 (SNF2 related chromatin remodeling ATPase 5),-0.76,enough cells in well,212,inactive
"Rasd1 (RAS, dexamethasone-induced 1)",-0.56,enough cells in well,248,inactive
Fbxw7 (F-box and WD-40 domain protein 7),-0.94,enough cells in well,150,inactive
Kcnma1,-0.86,enough cells in well,145,inactive
Nat8f1 (N-acetyltransferase 8 (GCN5-related) family member 1),0.87,enough cells in well,278,inactive
Foxg1 (forkhead box G1),-0.12,enough cells in well,254,inactive
Pkdrej (polycystin (PKD) family receptor for egg jelly),-0.11,enough cells in well,273,inactive
Fcho2 (FCH domain only 2),0.38,enough cells in well,188,inactive
"Mrgprh (MAS-related GPR, member H)",-1.89,enough cells in well,84.5,active
Tmem59l (transmembrane protein 59-like),,fewer than 50 cells per well; well left out of calls,139,inactive
Chgb (chromogranin B),0.16,enough cells in well,241,inactive
Fbxl22 (F-box and leucine-rich repeat protein 22),4.24,enough cells in well,550,active
Fscn1 (fascin actin-bundling protein 1),-0.52,enough cells in well,224,inactive
Or7h8 (olfactory receptor family 7 subfamily H member 8),,fewer than 50 cells per well; well left out of calls,61.5,inactive
"Serpina3m (serine (or cysteine) peptidase inhibitor, clade A, member 3M)",-0.13,enough cells in well,95,inactive
Rpap1 (RNA polymerase II associated protein 1),0.22,enough cells in well,142,inactive
Pafah2 (platelet-activating factor acetylhydrolase 2),-0.17,enough cells in well,250,inactive
Maea (macrophage erythroblast attacher),-0.59,enough cells in well,172,inactive
"Fam107b (family with sequence similarity 107, member B)",,fewer than 50 cells per well; well left out of calls,200,inactive
"Tubg1 (tubulin, gamma 1)",-0.91,enough cells in well,169,inactive
Capn1 (calpain 1),0.15,enough cells in well,158,inactive
Ube2f (ubiquitin-conjugating enzyme E2F (putative)),-0.71,enough cells in well,191,inactive
Noc3l (NOC3 like DNA replication regulator),-0.41,enough cells in well,124,inactive
Elac2 (elaC ribonuclease Z 2),-0.29,enough cells in well,225,inactive
Ube2d2b (ubiquitin-conjugating enzyme E2D 2B),-0.16,enough cells in well,158,inactive
"Lgals7 (lectin, galactose binding, soluble 7)",3.3,enough cells in well,398,active
Timm50 (translocase of inner mitochondrial membrane 50),0.58,enough cells in well,174,inactive
Nln (neurolysin (metallopeptidase M3 family)),-0.5,enough cells in well,178,inactive
Nde1 (nudE neurodevelopment protein 1),-0.23,enough cells in well,222,inactive
Htt (huntingtin),0.03,enough cells in well,230,inactive
Ca12 (carbonic anhydrase 12),0.78,enough cells in well,157,inactive
Pced1b (PC-esterase domain containing 1B),-0.63,enough cells in well,207,inactive
Ppil2 (peptidylprolyl isomerase (cyclophilin)-like 2),-0.75,enough cells in well,80.1,inactive
Tcp11 (t-complex protein 11),,fewer than 50 cells per well; well left out of calls,125,inactive
Uqcrb (ubiquinol-cytochrome c reductase binding protein),-0.77,enough cells in well,90.7,inactive
"Pdgfrb (platelet derived growth factor receptor, beta polypeptide)",1.98,enough cells in well,308,inactive
Asz1,-1.08,enough cells in well,156,inactive
Syt16 (synaptotagmin XVI),3.68,enough cells in well,274,active
Or5w22 (olfactory receptor family 5 subfamily W member 22),-0.16,enough cells in well,179,inactive
"Abcb11 (ATP-binding cassette, sub-family B member 11)",1.97,enough cells in well,247,inactive
Potefam1 (POTE ankyrin domain family member 1),,fewer than 50 cells per well; well left out of calls,203,inactive

In a second layout: entries from further up.
| target | Tnf reporter robust z-score | fewer than 50 cells in well | Tnf reporter intensity, replicate 1 | Outcome |
| --- | --- | --- | --- | --- |
| Pcdhga2 (protocadherin gamma subfamily A, 2) | 0.6 | enough cells in well | 178 | inactive |
| Tspo2 (translocator protein 2) | -0.26 | enough cells in well | 115 | inactive |
| Gpr108 (G protein-coupled receptor 108) | 0 | enough cells in well | 216 | inactive |
| Parp3 (poly (ADP-ribose) polymerase family, member 3) | -1.26 | enough cells in well | 89.4 | inactive |
| 5830411J07Rik (RIKEN cDNA 5830411J07 gene) | -1.56 | enough cells in well | 88.3 | active |
| Lrif1 (ligand dependent nuclear receptor interacting factor 1) | 2.25 | enough cells in well | 318 | inactive |
| Senp2 (SUMO/sentrin specific peptidase 2) | – | fewer than 50 cells per well; well left out of calls | 132 | inactive |
| Tbx4 (T-box 4) | -0.21 | enough cells in well | 214 | inactive |
| Tspyl2 (TSPY-like 2) | -0.93 | enough cells in well | 138 | inactive |
| Caskin2 (CASK-interacting protein 2) | -0.85 | enough cells in well | 71.8 | inactive |
